Experimental data from PMC7431862.

Target: T1, CTCF (endogenous, rat Schwann cells) (rat (endogenous in primary rat Schwann cells)) (UniProt Q9R1D1)
T1 sequence: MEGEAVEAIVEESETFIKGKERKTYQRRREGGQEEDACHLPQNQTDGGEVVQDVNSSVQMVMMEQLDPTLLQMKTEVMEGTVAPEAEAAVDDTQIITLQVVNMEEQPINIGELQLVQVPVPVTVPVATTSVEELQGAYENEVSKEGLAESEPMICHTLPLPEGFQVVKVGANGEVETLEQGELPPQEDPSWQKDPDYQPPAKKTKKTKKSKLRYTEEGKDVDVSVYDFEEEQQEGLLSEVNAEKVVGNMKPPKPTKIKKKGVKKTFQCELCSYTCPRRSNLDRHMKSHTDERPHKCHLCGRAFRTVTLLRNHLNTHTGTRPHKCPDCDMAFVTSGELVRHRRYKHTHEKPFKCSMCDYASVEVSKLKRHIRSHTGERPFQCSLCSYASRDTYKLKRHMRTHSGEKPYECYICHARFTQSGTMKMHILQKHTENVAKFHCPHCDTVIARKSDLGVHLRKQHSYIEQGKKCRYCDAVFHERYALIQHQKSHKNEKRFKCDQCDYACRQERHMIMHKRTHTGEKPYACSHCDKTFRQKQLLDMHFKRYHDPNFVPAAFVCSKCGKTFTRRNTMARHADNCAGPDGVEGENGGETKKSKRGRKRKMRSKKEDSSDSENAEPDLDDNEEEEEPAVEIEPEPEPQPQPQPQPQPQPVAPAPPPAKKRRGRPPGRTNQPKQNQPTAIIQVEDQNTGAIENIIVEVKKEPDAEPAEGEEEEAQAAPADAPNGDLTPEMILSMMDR
Test: co-IP; endogenous proteins; differentiating rat Schwann cells lysed in NP-40 buffer (170 mM NaCl, 10 mM EDTA, 50 mM Tris pH 7.4, 50 mM NaF, 0.5% NP-40); 300 ug lysate with 2 ug IgG or anti-CTCF antibody, Protein A/G beads; Western blot for SUZ12

With SUZ12 (endogenous, rat Schwann cells) the binding was “binds”.

No constants are given. Whether binding was seen depends on the method and setting. Binding seen in cells or lysates may run through a third protein. Binding can be weak; no strength is given.
